Experimental data: publication PMC6369441
These are yes or no findings as the source states them, for the method shown. Some entries that bind do so weakly or less than the wild type. Blank lines part the entries; values can stand above or below the molecule they belong to.

Sequences of proteins named here, by UniProt entry; tags and fusion partners are left off. A change or cut given only in a name is not applied to a line headed by its entry.
UniProt P06756: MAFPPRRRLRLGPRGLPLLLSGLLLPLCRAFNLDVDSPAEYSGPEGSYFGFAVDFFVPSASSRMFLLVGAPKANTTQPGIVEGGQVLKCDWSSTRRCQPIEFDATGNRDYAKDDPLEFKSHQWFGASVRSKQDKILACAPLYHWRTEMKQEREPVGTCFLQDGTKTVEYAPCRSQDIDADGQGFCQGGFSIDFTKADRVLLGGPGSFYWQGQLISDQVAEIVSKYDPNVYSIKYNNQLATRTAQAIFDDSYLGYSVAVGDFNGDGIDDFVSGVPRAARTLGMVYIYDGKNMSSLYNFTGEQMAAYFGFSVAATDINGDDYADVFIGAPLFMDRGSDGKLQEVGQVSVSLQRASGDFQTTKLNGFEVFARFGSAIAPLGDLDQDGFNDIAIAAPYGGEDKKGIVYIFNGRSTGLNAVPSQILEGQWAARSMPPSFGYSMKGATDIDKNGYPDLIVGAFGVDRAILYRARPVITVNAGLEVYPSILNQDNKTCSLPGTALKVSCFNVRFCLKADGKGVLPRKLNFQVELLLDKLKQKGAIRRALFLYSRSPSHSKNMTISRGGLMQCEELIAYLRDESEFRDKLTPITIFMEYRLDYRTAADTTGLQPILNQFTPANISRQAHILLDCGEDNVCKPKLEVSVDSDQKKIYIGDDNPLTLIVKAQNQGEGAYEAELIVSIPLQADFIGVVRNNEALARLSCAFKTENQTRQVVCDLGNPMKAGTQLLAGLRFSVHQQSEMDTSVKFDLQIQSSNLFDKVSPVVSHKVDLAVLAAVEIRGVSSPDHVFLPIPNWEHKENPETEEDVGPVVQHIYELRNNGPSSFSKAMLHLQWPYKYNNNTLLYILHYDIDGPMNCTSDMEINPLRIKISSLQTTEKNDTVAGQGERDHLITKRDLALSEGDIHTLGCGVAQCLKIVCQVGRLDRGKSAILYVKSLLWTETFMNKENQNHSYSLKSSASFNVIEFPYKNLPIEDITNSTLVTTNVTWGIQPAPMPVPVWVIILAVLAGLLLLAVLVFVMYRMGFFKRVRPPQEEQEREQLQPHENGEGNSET
UniProt P05106: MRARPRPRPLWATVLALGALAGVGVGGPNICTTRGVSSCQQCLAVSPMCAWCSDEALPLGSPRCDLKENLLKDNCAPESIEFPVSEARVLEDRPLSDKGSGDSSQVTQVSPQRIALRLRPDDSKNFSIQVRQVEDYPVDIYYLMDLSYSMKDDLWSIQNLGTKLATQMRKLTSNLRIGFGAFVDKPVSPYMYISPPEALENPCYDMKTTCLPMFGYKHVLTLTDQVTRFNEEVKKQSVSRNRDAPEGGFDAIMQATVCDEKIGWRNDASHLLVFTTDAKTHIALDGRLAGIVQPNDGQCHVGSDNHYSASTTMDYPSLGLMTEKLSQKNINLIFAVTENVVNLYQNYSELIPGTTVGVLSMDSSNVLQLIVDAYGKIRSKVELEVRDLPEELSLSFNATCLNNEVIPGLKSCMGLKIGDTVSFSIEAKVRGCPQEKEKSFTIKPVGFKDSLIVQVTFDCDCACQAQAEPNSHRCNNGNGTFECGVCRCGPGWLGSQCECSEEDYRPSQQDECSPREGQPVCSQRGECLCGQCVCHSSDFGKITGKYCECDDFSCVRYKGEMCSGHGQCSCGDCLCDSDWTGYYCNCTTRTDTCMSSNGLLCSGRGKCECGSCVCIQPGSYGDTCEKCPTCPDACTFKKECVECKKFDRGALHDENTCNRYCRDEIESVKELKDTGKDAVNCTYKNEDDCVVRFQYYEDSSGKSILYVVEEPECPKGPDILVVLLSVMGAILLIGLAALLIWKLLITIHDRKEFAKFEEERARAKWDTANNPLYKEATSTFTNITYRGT

What was measured:
cyclic RGDFC peptide [1] = target: T1, cyclic RGDFC peptide; assay: surface enhanced Raman scattering (SERS); cyclic RGDFC on gold nanostars incubated with purified αvβ3 integrin for 2 hours; spectra analysed by multivariate curve resolution; both purified
T1 sequence (peptide, cyclic; the cysteine thiol is used to functionalise the gold nanostars): RGDFC

cyclic RGDFC peptide [2] = target: T1, cyclic RGDFC peptide; assay: surface enhanced Raman scattering (SERS); cyclic RGDFC on gold nanostars incubated with FBS supplemented RPMI media and αvβ3 integrin for 2 hours; 633 nm laser excitation; both purified
[3] = target: T2, αvβ3 integrin on the membrane of SW620 human metastatic colon cancer cells (human (endogenous in SW620)) (UniProt P06756+P05106); assay: surface enhanced Raman scattering (SERS) mapping of cells; receptor blocking: SW620 cells incubated with a high concentration of linear RGD peptide for 2 hours, then Au-RGDFC nanostars for 2 hours, washed, fixed, mapped at 633 nm; unblocked cells as control; only the binder purified
[4] = target: T2, αvβ3 integrin on the membrane of SW620 human metastatic colon cancer cells (human (endogenous in SW620)); assay: surface enhanced Raman scattering (SERS) mapping of cells; Au-RGDFC nanostars added to SW620 cells in the culture dish for 2 hours, cells fixed, mapped with 1 um step, 633 nm; DCLS against the MCR spectrum of purified αvβ3 integrin; bare Au nanostars as control; only the binder purified

binding (cyclic RGDFC peptide [1]): binds
binding (cyclic RGDFC peptide [2]): binds
Molecule: purified αvβ3 integrin (from UniProt P06756 31-1048; P05106 27-788) (complex)

binding [3]: binds
binding [4]: binds
B1: cyclic RGDFC peptide (peptide)
peptide: RGDFC
modifications: cyclic; the cysteine thiol is used to functionalise the gold nanostars
